Data taken from PubChem BioAssay AID2685 (National Center for Advancing Translational Sciences (NCATS), 2010).
The list shows a part of the results. Shown are side measurements of this screen, not its main read-out; they come without a call. Compounds called inactive in the main read-out are mostly missing here. Words in brackets tell the shape of the fitted curve; partial curves, single points and poor fits give uncertain potencies.

Experiment: qHTS Assay for Lipid Storage Modulators in Drosophila S3 Cells;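 as to cell number change: cells counted by Cell Tracker Red CMTPX staining in the red channel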
Conditions: BODIPY lipid droplet fluorescence, 18-24 h; for cell number change: measured here: cell count max response, cells fed with added oleic acid
Summary of the method: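 Drosophila S3 cells got compounds at several concentrations plus oleic acid (400 uM solution). Laser-scanning cytometry with 488 nm excitation read lipid droplets at 500-530 nm and cells at 575-640 nm. Percent activity was relative to 20 uM Triacsin C.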

[1] = measured here: lipid fluorescence (Fed channel) AC50, cells fed with added oleic acid
[2] = measured here: cell number channel AC50, cells fed with added oleic acid

SMILES	cell number change [%]	AC50 [1]	AC50 [2]
CCOC(=O)c1sc2nc(CSc3ccccc3)[nH]c(=O)c2c1C	-7.57	20.6 µM [falling, single point]	
O=[N+]([O-])c1ccc(/C([O-])=C(/C(=S)NCc2ccco2)[n+]2ccccc2)cc1	-1.95	3.26 µM [falling, single point]	
Cc1ccc(C(=O)OCC(=O)NCc2ccco2)cc1	8.15	0.58 µM [rising, single point]	
CN(C)c1cccc2c(C=C(C#N)C#N)ccc(N(C)C)c12	-30.9	0.651 µM [falling, full curve]	2.06 µM [falling, full curve, poor fit]
COc1ccc(NC(=O)COC(=O)CCCc2c[nH]c3ccccc23)cc1	48.9		32.6 µM [rising, partial curve, poor fit]
C=CCNC(=O)CN1C(=O)c2cccc3cccc1c23	13.3		
Cc1noc(C)c1COC(=O)c1ccccc1NC(=O)c1ccco1		2.06 µM [rising, partial curve]	4.61 µM [rising, single point]
CCc1c(O)nc(SCC(=O)Nc2ccccc2)n(C(C)CC)c1=O (stereo not given)	125	0.731 µM [falling, single point]	
CCOC(=O)C1=NOC(Cn2cc(C(C)=O)c(=O)[nH]c2=O)C1 (stereo not given)	12.6	0.00461 µM [falling, full curve, poor fit]	
Cc1ccc(CN(C)C(=O)c2cccc(S(=O)(=O)N3CCc4ccccc4C3)c2)o1	-13.6		0.13 µM [falling, full curve, poor fit]
O=C(Nc1ccccc1)O/N=C1\CCCCC1c1ccc([N+](=O)[O-])cc1[N+](=O)[O-] (stereo not given)	15.8		
Nc1c(Cl)cc(C2=NCCn3nc4ccccc4c32)cc1Cl		29.1 µM [falling, single point]	
O=C(CNc1ccccc1)N/N=C/c1ccc2c(c1)OCO2	-0.0444	0.00517 µM [rising, full curve, poor fit]	
O=C(NNC(=O)c1cc2c(s1)CCCC2)c1ccccc1	33.9	1.03 µM [rising, full curve, poor fit]	2.31 µM [rising, full curve, poor fit]
CCCN1CCC(NC(=O)Nc2ccc(OC)c(OC)c2)CC1	9.84		
CCOc1ccccc1N(CC(=O)Nc1ccc(S(=O)(=O)N2CCOCC2)cc1)S(=O)(=O)c1ccc(Cl)cc1	-25.3	5.8 µM [falling, single point]	
Nc1nc(-c2ccccc2)[nH]c(=O)c1N	-10.5	10.3 µM [rising, partial curve, poor fit]	
Cc1ccc(S[C@@H](CCN2CC[C@H](O)CCC2=O)c2ccccc2)cc1	12.9		
COc1ccccc1CCN1CCCC(CN(C)C(=O)CCC(=O)N(C)C)C1 (stereo not given)	9.62	0.731 µM [rising, single point]	
CCOC(=O)CCc1nc2ccccc2[nH]c1=O	-8.83	0.731 µM [falling, full curve]	
CC(=O)N1CCN(Cc2nc3cc(NC(=O)c4ccc(Cl)cc4)ccc3n2C)CC1	260		16.4 µM [rising, partial curve]

SMILES	cell number change [%]	AC50 [1]	AC50 [2]
Cc1c(Cl)cnc(NC(=O)COC(=O)c2ccc3c(c2)OCO3)c1Cl	0.23		1.84 µM [rising, partial curve]
CCC1(CC)Cc2ccccc2C(=O)N1	-16.5		
CCN(CC)S(=O)(=O)c1cccc(C(=O)Oc2cccnc2)c1	-19.4	0.00517 µM [falling, full curve, poor fit]	
COCCC(=O)N1CCC(n2nccc2NC(=O)c2ccccc2C)CC1		0.58 µM [falling, single point]	
CCOc1ccc2nc(SCC(=O)NCc3ccco3)sc2c1		6.51 µM [falling, single point]	4.61 µM [falling, single point]
COC(=O)[C@@H](NC(=O)N1CCN(C(=O)C2COc3ccccc3O2)CC1)C(C)C (stereo not given in full)	1.91	6.51 µM [rising, single point]	
CC(NC(=O)CSCc1ccccc1Br)c1ccccc1 (stereo not given)	10.6	20.6 µM [rising, single point]	
Cc1cc(NC(=O)COC(=O)C2CCCN2C(=O)c2cccs2)no1 (stereo not given)	2.16	1.46 µM [falling, full curve, poor fit]	
CCN1C(=O)/C(=C/C2=Cc3ccccc3OC2C)SC1=S (stereo not given)	-0.727	2.91 µM [falling, partial curve]	
O=C(c1cccc(S(=O)(=O)N2CCOCC2)c1)N1CCN(c2ccccc2)CC1	20.2	9.2 µM [rising, partial curve, poor fit]	
COc1ccccc1-c1ccc(SCC(=O)NC2CCCC2)nn1	54.4		29.1 µM [rising, single point]
Cc1ccnc(NC(=O)CCC(=O)N(CC(=O)NCC2CCCO2)Cc2ccc(F)cc2)c1 (stereo not given)	6.47		
CCCOc1ccccc1Nc1nnc(C)c(=O)[nH]1	-10.9		0.103 µM [falling, full curve, poor fit]
COC(C(=O)NNS(=O)(=O)c1ccccc1[N+](=O)[O-])c1ccccc1 (stereo not given)	-13.5	29.1 µM [rising, single point]	
COc1ccc(CN2CCN(c3ccccn3)CC2)cc1OCc1ccccc1	-7.67		
COc1ccc(-c2cccc(NS(=O)(=O)c3cc([N+](=O)[O-])ccc3Cl)c2)nn1	27.3		
COc1ccc(-c2cc(C(=O)Nc3cc(OC)c(OC)c(OC)c3)no2)cc1OC	31.6	16.4 µM [rising, single point]	4.11 µM [rising, partial curve]
OC(CN1CCNCC1)Cn1c2ccccc2c2ccccc21 (stereo not given)	-14.9		
Cc1ccc(S(=O)(=O)N2CCCC2C(=O)N(C)Cc2cccs2)cc1 (stereo not given)	-10.7	6.51 µM [rising, single point]	
CC(C)N(C)CCOC(=O)C1COc2ccccc2O1 (stereo not given)	2.87		0.651 µM [rising, full curve, poor fit]
CO/N=C(/CS(=O)(=O)c1ccc(C)cc1)c1ccc(OC)cc1			2.06 µM [rising, partial curve]

SMILES	cell number change [%]	AC50 [1]	AC50 [2]
COc1ccc(NC(=O)CN(C)CC(=O)NCC2CCCCC2)cc1	25.3		
CN(C(=O)COC(=O)c1cc2ccccc2cc1O)C1CCCCC1	-1.32		6.51 µM [falling, single point]
Cc1cc(N2CCN(C)CC2)nc2ccc(NC(=S)N3CCCCC3)cc12	-23.2	4.61 µM [falling, single point]	3.66 µM [falling, full curve, poor fit]
Cc1cc([N+](=O)[O-])c(C)cc1-c1ccc(/C=N/NC(=O)c2cccnc2)o1	35		0.0164 µM [rising, full curve, poor fit]
COc1ccccc1CNC(=O)CSc1ccccc1		7.94 µM [rising, single point]	
CCc1ccc(C(O)(CC(C)C)C(CN2CCOCC2)c2ccccc2)cc1 (stereo not given)	-35.5	2.06 µM [rising, partial curve]	29.1 µM [falling, single point]
CCC1=NN2C(=N)/C(=C/c3c(C)nn(-c4ccccc4)c3Cl)C(=O)N=C2S1	-6.32	23.1 µM [rising, single point]	
O=C(NP(=O)(N1CCOCC1)N1CCOCC1)C1=C(N2CCOCC2)/C(=C\c2ccccc2)CC1	-6.46	18.4 µM [falling, partial curve]	0.146 µM [falling, full curve, poor fit]
Clc1cccc(CN2CCN(Cc3ccco3)CC2)c1	9.72		
CCOc1ccc2nc(NS(C)(=O)=O)sc2c1	-20.7		
COc1ccc(Cl)cc1NC(=O)c1noc(C)c1[N+](=O)[O-]	-18.8	18.4 µM [falling, single point]	
COc1ccc(-c2c(-c3ccccc3)c(C(=O)C(=O)NCCCN(C)C)n3ccc4cc(OC)c(OC)cc4c23)cc1OC			0.13 µM [falling, full curve, poor fit]
Cc1c(CN2CCC(CO)(CCOc3ccccc3)CC2)[nH]c2ccc(Cl)cc12	-72.6	25.9 µM [falling, single point]	18.4 µM [falling, single point]
C=CCNc1oc(-c2cccs2)nc1S(=O)(=O)c1ccccc1	27.4		
COc1cccc(-c2nc(CS(=O)CC(=O)NCCc3ccc(C)cc3)c(C)o2)c1 (stereo not given)	6.45	0.411 µM [falling, partial curve, poor fit]	
O=C(CCCOc1ccc(Cl)cc1)Nc1ccc(N2CCOCC2)cc1	-13.7	0.0651 µM [falling, full curve, poor fit]	
CN(CCCNC(=O)Cn1cc2c(n1)CCCC2)C1CCCCC1	-43.5	2.06 µM [falling, full curve]	0.731 µM [falling, full curve, poor fit]
CCOc1c(O)ccc(/C=C2\SC(=S)NC2=O)c1[N+](=O)[O-]	-18.8		
COc1ccc(NC(=O)c2cc([N+](=O)[O-])ccc2N2CCCCC2)cc1	0.84	6.51 µM [rising, single point]	
O=c1[nH]c(/C=C\c2cccs2)nc(O)c1[N+](=O)[O-]	-14.5	29.1 µM [falling, single point]	
CC(CCc1ccccc1)NC(=O)c1cccc(F)c1 (stereo not given)	8.09	0.116 µM [falling, full curve, poor fit]	

Some of these compounds in order of length of the SMILES, falling.
SMILES	cell number change [%]	AC50 [1]	AC50 [2]
COc1ccc(-c2c(-c3ccccc3)c(C(=O)C(=O)NCCCN(C)C)n3ccc4cc(OC)c(OC)cc4c23)cc1OC			0.13 µM [falling, full curve, poor fit]
COc1ccc(NC(=O)c2cc([N+](=O)[O-])ccc2N2CCCCC2)cc1	0.84	6.51 µM [rising, single point]	
Cc1cc(N2CCN(C)CC2)nc2ccc(NC(=S)N3CCCCC3)cc12	-23.2	4.61 µM [falling, single point]	3.66 µM [falling, full curve, poor fit]
O=c1[nH]c(/C=C\c2cccs2)nc(O)c1[N+](=O)[O-]	-14.5	29.1 µM [falling, single point]	
CN(C(=O)COC(=O)c1cc2ccccc2cc1O)C1CCCCC1	-1.32		6.51 µM [falling, single point]
Clc1cccc(CN2CCN(Cc3ccco3)CC2)c1	9.72		
